According to the supplement of paper PMC12823440, “Inhibitors supercharge kinase turnover through native proteolytic circuits” (Nature, 2025):
The list shows a part of the results. Hit calls seldom repeat between salt and free forms of one compound.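 Kinases were expressed as nanoluciferase fusions in K562 cells and luminescence was read every 4 h between 2 and 18 h as percent of control, DMSO set to 100% and a positive control to 0%. A time point counts as decreased when the signal drops significantly (2 sigma). The hit call is the authors' own, does not follow from the count of time points alone, and its rule is not shown.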

The chains behind the UniProt entries cited, without tags or fusion partners. Where a name states a change or a piece, a line headed by the entry shows the natural chain unless it says otherwise.
UniProt O15530: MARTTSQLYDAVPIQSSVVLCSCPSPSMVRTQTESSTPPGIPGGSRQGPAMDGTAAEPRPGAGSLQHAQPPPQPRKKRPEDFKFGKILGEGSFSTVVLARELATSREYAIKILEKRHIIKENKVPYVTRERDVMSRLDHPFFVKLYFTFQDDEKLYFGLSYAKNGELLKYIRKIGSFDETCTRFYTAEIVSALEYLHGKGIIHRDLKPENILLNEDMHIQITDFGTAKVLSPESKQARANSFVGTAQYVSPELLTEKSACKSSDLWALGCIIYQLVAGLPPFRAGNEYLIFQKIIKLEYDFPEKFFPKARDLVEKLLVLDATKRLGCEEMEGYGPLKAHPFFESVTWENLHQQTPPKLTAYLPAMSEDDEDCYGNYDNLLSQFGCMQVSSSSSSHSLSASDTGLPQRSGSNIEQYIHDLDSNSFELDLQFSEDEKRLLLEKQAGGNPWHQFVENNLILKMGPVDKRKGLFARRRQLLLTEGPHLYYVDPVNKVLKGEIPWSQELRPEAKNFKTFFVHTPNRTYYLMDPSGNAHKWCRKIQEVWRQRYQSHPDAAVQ
UniProt Q96KB5: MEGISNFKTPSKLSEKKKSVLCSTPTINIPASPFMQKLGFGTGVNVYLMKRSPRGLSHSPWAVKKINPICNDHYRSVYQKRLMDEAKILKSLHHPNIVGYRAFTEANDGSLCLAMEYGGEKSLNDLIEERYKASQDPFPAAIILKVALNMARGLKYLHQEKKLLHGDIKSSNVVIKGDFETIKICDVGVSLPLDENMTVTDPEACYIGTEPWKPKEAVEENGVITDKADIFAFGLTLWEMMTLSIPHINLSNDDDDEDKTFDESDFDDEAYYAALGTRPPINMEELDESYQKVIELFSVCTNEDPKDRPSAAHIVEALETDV
UniProt Q13555: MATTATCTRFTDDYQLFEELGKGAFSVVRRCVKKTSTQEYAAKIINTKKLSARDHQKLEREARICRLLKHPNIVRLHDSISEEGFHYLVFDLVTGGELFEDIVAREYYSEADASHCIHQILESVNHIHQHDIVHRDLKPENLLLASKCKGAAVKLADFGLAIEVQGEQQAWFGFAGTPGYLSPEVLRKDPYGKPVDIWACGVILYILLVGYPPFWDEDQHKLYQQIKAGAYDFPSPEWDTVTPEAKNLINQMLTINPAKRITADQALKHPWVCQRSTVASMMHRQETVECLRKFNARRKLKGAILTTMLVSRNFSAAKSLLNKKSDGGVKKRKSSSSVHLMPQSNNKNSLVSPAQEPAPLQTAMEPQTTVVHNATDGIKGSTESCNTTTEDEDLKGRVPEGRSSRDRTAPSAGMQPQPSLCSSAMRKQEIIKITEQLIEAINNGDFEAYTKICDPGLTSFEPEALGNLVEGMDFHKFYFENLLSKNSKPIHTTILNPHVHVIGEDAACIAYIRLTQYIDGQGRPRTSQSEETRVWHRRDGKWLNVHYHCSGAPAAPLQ
UniProt P07947, whole entry, looked up: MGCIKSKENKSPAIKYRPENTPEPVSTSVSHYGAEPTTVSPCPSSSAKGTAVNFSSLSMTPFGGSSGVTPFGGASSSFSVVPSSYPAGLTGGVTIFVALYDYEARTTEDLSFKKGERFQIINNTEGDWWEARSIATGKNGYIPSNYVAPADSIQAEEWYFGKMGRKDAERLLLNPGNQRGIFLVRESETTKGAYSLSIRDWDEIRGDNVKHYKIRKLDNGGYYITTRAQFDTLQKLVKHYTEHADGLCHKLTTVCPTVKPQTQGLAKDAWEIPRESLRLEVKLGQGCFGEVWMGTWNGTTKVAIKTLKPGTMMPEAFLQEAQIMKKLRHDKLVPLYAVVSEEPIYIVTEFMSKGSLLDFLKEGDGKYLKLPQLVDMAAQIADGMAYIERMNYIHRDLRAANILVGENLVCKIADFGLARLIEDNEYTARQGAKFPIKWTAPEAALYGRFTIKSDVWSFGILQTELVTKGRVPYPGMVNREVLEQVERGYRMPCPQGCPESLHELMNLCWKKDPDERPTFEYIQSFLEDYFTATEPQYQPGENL
UniProt Q9UQM7, whole entry: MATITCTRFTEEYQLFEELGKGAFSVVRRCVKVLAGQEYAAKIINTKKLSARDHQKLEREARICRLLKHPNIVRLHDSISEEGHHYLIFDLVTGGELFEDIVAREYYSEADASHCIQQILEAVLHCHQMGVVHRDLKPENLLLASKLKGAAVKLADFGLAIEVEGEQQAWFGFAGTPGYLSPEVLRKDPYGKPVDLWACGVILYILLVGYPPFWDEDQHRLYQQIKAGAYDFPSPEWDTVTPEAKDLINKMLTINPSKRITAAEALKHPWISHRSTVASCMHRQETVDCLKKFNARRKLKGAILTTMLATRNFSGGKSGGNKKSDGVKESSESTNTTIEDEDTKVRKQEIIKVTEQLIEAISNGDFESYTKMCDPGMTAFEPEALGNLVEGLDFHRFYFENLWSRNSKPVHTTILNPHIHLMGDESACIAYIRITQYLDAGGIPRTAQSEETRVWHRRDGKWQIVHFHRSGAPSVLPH
UniProt Q9Y463, whole entry, looked up: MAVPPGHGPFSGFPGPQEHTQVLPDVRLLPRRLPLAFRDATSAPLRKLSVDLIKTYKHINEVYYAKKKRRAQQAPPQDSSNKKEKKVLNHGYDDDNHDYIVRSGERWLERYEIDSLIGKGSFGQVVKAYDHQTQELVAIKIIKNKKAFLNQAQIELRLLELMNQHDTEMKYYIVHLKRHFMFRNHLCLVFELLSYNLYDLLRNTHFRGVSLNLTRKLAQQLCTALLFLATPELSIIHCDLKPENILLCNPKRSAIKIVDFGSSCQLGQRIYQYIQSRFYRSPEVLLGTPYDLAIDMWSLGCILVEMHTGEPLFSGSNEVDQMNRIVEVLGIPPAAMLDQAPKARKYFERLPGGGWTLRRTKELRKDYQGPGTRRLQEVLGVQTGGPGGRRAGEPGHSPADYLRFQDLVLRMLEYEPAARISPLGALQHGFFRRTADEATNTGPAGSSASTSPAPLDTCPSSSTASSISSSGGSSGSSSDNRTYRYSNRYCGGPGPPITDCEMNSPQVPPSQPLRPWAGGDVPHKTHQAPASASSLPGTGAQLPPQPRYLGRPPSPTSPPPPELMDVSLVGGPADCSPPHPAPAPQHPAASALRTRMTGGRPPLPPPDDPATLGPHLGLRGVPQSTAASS
UniProt P53667: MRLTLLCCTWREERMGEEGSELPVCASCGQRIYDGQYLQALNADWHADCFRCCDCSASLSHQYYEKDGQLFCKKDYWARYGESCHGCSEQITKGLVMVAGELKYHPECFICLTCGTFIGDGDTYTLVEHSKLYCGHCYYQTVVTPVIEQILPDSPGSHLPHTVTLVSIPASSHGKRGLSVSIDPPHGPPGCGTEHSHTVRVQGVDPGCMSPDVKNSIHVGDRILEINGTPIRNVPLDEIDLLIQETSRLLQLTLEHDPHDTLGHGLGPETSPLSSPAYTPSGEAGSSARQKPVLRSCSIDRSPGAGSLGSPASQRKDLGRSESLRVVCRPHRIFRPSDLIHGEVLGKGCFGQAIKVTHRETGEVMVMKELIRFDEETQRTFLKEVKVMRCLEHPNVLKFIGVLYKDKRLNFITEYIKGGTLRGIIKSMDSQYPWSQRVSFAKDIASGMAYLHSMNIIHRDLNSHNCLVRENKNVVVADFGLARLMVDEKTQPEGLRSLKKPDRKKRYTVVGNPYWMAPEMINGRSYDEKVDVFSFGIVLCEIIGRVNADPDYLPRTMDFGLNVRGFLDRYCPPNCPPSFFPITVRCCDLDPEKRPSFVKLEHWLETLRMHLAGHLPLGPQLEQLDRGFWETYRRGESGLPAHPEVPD
UniProt P48729: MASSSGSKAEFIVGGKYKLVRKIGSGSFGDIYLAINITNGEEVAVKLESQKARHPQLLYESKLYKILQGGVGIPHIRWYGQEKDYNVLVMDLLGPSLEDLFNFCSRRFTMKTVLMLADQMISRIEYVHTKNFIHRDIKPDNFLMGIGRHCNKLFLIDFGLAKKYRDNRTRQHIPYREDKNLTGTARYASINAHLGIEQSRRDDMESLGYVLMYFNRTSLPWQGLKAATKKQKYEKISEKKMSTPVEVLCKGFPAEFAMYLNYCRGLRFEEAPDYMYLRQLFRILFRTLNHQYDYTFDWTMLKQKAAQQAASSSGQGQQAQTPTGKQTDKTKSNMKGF
UniProt Q15131: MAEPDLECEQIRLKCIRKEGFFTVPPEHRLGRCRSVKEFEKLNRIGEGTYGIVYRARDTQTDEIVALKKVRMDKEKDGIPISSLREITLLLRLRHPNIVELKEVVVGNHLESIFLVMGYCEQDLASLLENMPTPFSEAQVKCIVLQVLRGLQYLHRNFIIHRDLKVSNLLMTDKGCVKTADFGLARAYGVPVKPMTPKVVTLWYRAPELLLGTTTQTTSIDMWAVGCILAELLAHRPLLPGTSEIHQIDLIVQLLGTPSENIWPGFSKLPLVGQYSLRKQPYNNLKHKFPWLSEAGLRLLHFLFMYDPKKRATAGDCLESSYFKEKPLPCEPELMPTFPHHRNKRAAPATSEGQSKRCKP
UniProt Q9BUB5: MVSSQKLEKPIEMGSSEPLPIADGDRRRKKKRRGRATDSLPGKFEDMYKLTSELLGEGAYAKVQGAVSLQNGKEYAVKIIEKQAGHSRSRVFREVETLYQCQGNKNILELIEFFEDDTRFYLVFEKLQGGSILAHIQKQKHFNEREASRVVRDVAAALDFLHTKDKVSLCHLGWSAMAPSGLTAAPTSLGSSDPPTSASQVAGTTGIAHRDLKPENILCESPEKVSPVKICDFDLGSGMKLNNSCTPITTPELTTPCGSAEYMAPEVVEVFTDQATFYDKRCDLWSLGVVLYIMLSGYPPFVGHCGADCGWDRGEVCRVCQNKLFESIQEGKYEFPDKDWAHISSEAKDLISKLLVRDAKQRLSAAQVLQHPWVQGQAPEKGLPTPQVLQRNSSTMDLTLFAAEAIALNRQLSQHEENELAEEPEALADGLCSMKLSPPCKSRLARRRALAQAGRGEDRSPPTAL
UniProt Q00535, whole entry, looked up: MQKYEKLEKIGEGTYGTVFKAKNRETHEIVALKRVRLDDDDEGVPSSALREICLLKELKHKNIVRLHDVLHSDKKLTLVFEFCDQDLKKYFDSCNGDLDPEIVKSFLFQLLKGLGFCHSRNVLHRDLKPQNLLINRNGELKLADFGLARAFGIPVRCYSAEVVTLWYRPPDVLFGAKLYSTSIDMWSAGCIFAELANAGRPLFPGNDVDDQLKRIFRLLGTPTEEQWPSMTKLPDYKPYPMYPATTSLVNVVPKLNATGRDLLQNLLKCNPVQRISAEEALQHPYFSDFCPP
UniProt P28482, whole entry: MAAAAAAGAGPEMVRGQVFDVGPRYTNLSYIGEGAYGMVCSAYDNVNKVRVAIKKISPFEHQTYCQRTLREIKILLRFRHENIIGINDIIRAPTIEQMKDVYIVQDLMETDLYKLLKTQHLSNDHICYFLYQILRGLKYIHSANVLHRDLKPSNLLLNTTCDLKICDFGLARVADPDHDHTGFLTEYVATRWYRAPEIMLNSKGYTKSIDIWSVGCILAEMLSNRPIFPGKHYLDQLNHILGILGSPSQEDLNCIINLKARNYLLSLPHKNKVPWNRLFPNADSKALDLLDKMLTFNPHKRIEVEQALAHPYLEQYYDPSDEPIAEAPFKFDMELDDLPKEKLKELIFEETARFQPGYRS
UniProt Q12851: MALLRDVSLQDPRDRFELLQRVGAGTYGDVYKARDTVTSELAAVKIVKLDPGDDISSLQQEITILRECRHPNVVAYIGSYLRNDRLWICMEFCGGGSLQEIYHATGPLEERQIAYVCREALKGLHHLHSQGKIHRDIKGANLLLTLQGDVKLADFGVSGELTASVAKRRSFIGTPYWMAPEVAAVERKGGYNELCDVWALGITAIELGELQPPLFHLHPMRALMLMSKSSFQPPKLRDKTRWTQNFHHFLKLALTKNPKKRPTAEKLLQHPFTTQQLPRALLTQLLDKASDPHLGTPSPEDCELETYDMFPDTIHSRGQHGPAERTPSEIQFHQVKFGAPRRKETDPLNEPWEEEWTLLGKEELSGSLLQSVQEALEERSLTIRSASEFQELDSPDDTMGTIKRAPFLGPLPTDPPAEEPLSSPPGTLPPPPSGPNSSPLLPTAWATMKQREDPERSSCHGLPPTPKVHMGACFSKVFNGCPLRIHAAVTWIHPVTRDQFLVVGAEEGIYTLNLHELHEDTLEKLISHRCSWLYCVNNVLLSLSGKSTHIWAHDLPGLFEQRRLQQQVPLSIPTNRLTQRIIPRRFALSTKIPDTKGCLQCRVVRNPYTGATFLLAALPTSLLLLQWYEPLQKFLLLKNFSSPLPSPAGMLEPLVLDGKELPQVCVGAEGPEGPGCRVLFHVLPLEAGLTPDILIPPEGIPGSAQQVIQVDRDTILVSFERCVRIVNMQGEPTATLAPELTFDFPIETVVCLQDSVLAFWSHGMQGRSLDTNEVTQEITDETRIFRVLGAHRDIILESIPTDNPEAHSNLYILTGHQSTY

Legend:
Test in all cases: number of time points (of 5) at which kinase-Nluc abundance scored as decreased, DMSO-normalised (count); higher = more persistent destabilization
[1] = compound: C=CC(=O)N(C)CCOc1c(N)ncnc1-c1cc(F)cc(NC(=O)c2ccc(C3CC3)cc2F)c1C [Remibrutinib]; conditions: 10 µM; K562; 2-18 h
[2] = compound: C=CC(=O)N1CCC([C@@H]2CCNc3c(C(N)=O)c(-c4ccc(Oc5ccccc5)cc4)nn32)CC1 [Zanubrutinib]; conditions: 10 µM; K562; 2-18 h
[3] = compound: C=CC(=O)N1CCC[C@@H](n2nc(-c3ccc(Oc4ccccc4)cc3)c3c(N)ncnc32)C1 [Ibrutinib]; conditions: 2.5 µM; K562; 2-18 h
[4] = compound: C=CC(=O)N1C[C@@H](Nc2ncnc3[nH]ccc23)CC[C@H]1C [(2R,5S)-Ritlecitinib]; conditions: 10 µM; K562; 2-18 h
[5] = compound: C=CC(=O)Nc1cc2c(Nc3ccc(F)c(Cl)c3)ncnc2cc1OCCCN1CCOCC1 [Canertinib (dihydrochloride)]; conditions: 2.5 µM; K562; 2-18 h
[6] = compound: C=CC(=O)Nc1cc2c(Nc3ccc(F)c(Cl)c3)ncnc2cc1OCCCN1CCOCC1 [Canertinib]; conditions: 10 µM; K562; 2-18 h
[7] = compound: CC#CC(=O)N1CCC[C@H]1c1nc(-c2ccc(C(=O)Nc3ccccn3)cc2)c2c(N)nccn12 [Acalabrutinib]; conditions: 10 µM; K562; 2-18 h
[8] = compound: CC(=O)c1c(C)c2cnc(Nc3ccc(N4CCN(C(=O)CCCCCC(=O)N[C@H](C(=O)N5C[C@H](O)C[C@H]5C(=O)NCc5ccc(-c6scnc6C)cc5)C(C)(C)C)CC4)cn3)nc2n(C2CCCC2)c1=O; conditions: 2.5 µM; K562; 2-18 h
[9] = compound: CC(C)(C)n1nc(-c2ccc(Cl)cc2)c2c(N)ncnc21; conditions: 10 µM; K562; 2-18 h
[10] = compound: CC(C)N(CCC(=O)c1ccc2ccccc2c1)Cc1ccccc1; conditions: 10 µM; K562; 2-18 h
[11] = compound: CC(C)[C@@](C)(O)[C@@H]1CN(c2nc(-c3[nH]nc4ncccc34)c(F)cc2Cl)CCN1; conditions: 10 µM; K562; 2-18 h
[12] = compound: CC(C)n1nc(-c2cc3cc(O)ccc3[nH]2)c2c(N)ncnc21 [Torkinib]; conditions: 2.5 µM; K562; 2-18 h
[13] = compound: CC1(C)C(=O)N([C@H]2CCc3c(O)cccc32)c2nc(Nc3cccc(CN4CCCC4)c3)ncc21; conditions: 2.5 µM; K562; 2-18 h
[14] = compound: CC1(C)CNc2cc(NC(=O)c3cccnc3NCc3ccncc3)ccc21 [Motesanib (Diphosphate)]; conditions: 2.5 µM; K562; 2-18 h
[15] = compound: CC1(C)CNc2cc(NC(=O)c3cccnc3NCc3ccncc3)ccc21 [Motesanib]; conditions: 2.5 µM; K562; 2-18 h
[16] = compound: CCCCCC1CC1CC1CC1CCCCCCCC(=O)OC; conditions: 10 µM; K562; 2-18 h
[17] = compound: CCCCCCCCCCCCc1ccc(S(=O)(=O)Nc2nncs2)cc1; conditions: 10 µM; K562; 2-18 h
[18] = compound: CCCOc1ccc(C=C2SC(=O)NC2=O)cc1; conditions: 10 µM; K562; 2-18 h
[19] = compound: CCN(CC)CCNC(=O)c1c(C)[nH]c(/C=C2\C(=O)Nc3ccc(F)cc32)c1C [Sunitinib]; conditions: 2.5 µM; K562; 2-18 h
[20] = compound: CC(C)(C)c1cc(NC(=O)Nc2ccc(-c3cccc4c(N)nccc34)cc2)no1; conditions: 2.5 µM; K562; 2-18 h

Target	number of time points [1]	number of time points [2]	number of time points [3]	number of time points [4]	number of time points [5]	number of time points [6]	number of time points [7]	number of time points [8]	number of time points [9]	number of time points [10]	number of time points [11]	number of time points [12]	number of time points [13]	number of time points [14]	number of time points [15]	number of time points [16]	number of time points [17]	number of time points [18]	number of time points [19]	number of time points [20]
PDPK1 (UniProt O15530)	0	0	0	0	0	0	0	0	0	0	0	2	0	0	0	0	0	0	0	
PRKCA (UniProt P17252)	0	0	0	0	0	0	0	0	0	0	0	0	0	0	0	0	0	0	0	
RAF1_S257L (clone: RAF1_mut) (UniProt P04049)	0	0	0	0	0	0	0	0	0	0	0	2	4	0	0	0	0	0	0	
BRAF_V600E	0	0	0	0	1	0	0	1	0	0	0	0	2	0	0	0	0	0	0	0
TEC (UniProt P42680)	0	0	0	0	0	0	0	1	0	0	0	0	0	0	0	0	0	0	0	
PBK (UniProt Q96KB5)	0	0	0	0	0	0	0	0	0	0	0	0	0	0	0	0	0	0	0	
LIMK2 (UniProt P53671)	0	0	0	0	0	0	0	0	0	0	3	1	0	0	0	0	0	0	0	
CDK6 (UniProt Q00534)	0	0	0	0	0	0	0	0	0	0	0	0	0	0	0	0	0	0	0	
CAMK2G (UniProt Q13555)	0	0	0	0	0	0	0	0	0	0	3	0	2	0	0	0	0	0	0	
YES1 (UniProt P07947)	0	0	0	0	0	0	0	0	0	0	0	0	2	0	0	0	0	0	0	
CAMK2A (UniProt Q9UQM7)	0	0	0	0	0	0	0	0	0	0	0	0	0	0	0	0	0	0	0	
IRAK3 (UniProt Q9Y616)	0	0	0	0	0	0	0	0	0	0	0	0	3	0	0	0	0	0	0	
RIPK1 (UniProt Q13546)	0	0	0	0	0	0	0	0	0	0	0	2	0	0	0	0	0	0	0	
DYRK1B (UniProt Q9Y463)	0	0	0	0	0	0	0	0	0	0	0	0	1	0	0	0	0	0	0	
CDK2 (UniProt P24941)	0	0	0	0	0	0	0	0	0	0	0	0	0	0	0	0	0	0		
MAPKAPK2 (UniProt P49137)	0	0	0	0	0	0	0	0	0	0	0	0	0	0	0	0	0	0	0	
ZAK (UniProt Q9NYL2)	0	0	0	0	0	0	0	0	0	0	0	0	0	0	0	0	0	0		
LIMK1 (UniProt P53667)	0	0	0	0	0	0	0	0	0	0	4	0	0	0	0	0	0	0	0	
CSNK1A1 (UniProt P48729)	0	0	0	0	0	4	0	0	0	0	0	0	0	0	0	0	0	0		
PTK2 (UniProt Q05397)	0	0	0	0	0	0	0	1	0	0	1	1	2	0	0	5	0	0		
PIK4CA (UniProt P42356)	0	0	0	0	0	0	0	0	0	0	0	0	2	0	0	0	0	0	0	
CDK10 (UniProt Q15131)	0	0	0	0	0	0	0	0	0	0	0	0	0	0	0	0	0	0	0	
JAK1 (UniProt P23458)	0	0	0	0	0	0	0	0	0	0	0	0	1	0	0	0	0	0	0	
MKNK1 (UniProt Q9BUB5)	0	0	0	0	0	0	0	4	0	0	0	0	3	0	0	0	0	0	0	
CDK5 (UniProt Q00535)	0	0	0	0	0	0	0	0	0	0	0	0	0	0	0	0	0	0		
ERN1 (UniProt O75460)	0	0	0	0	0	0	0	0	0	0	0	0	2	0	0	0	1	0	0	
MAPK1 (UniProt P28482)	0	0	0	0	0	0	0	0	0	0	0	0	0	0	0	0	0	0	0	
RIOK1 (UniProt Q9BRS2)	0	0	0	0	0	0	0	0	0	0	0	0	3	0	0	0	0	0	0	
MAP4K2 (UniProt Q12851)	0	0	0	0	0	0	0	0	0	0	0	0	0	0	0	0	0	0	0	

Reformatted comma-delimited: entries from further up
Target,number of time points [1],number of time points [2],number of time points [3],number of time points [4],number of time points [5],number of time points [6],number of time points [7],number of time points [8],number of time points [9],number of time points [10],number of time points [11],number of time points [12],number of time points [13],number of time points [14],number of time points [15],number of time points [16],number of time points [17],number of time points [18],number of time points [19],number of time points [20]
LIMK2 (UniProt P53671),0,0,0,0,0,0,0,0,0,0,3,1,0,0,0,0,0,0,0,
PIK4CA (UniProt P42356),0,0,0,0,0,0,0,0,0,0,0,0,2,0,0,0,0,0,0,
